Data from the supplement of paper PMC6411743.
± gives the standard deviation of the averaged measurements. This is a selection; strong and weak results do not stand in their true shares.

Sequences of proteins named here, by UniProt entry; tags and fusion partners are left off. A change or cut given only in a name is not applied to a line headed by its entry.
UniProt Q9NXH9: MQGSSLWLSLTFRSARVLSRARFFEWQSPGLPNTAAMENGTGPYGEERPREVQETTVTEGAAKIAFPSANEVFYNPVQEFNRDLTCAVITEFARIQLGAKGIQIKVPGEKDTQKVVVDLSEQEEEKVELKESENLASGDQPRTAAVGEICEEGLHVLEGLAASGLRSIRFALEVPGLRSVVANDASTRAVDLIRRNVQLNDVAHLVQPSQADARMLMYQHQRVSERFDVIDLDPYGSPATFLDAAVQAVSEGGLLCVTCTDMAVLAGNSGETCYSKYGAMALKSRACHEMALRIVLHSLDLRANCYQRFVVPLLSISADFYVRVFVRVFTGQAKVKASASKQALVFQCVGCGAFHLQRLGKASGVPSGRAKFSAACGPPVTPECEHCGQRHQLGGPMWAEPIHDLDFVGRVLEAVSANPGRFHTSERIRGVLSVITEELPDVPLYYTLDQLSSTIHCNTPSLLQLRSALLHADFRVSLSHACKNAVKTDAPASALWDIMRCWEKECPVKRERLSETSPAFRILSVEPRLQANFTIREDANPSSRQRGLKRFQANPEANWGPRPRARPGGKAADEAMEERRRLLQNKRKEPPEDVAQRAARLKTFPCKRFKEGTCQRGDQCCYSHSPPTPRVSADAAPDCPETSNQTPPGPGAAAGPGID
UniProt Q9UBF6, whole entry: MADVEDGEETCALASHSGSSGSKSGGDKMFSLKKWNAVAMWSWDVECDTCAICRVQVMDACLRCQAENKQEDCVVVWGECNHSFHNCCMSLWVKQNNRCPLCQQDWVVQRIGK
UniProt Q9NVR5: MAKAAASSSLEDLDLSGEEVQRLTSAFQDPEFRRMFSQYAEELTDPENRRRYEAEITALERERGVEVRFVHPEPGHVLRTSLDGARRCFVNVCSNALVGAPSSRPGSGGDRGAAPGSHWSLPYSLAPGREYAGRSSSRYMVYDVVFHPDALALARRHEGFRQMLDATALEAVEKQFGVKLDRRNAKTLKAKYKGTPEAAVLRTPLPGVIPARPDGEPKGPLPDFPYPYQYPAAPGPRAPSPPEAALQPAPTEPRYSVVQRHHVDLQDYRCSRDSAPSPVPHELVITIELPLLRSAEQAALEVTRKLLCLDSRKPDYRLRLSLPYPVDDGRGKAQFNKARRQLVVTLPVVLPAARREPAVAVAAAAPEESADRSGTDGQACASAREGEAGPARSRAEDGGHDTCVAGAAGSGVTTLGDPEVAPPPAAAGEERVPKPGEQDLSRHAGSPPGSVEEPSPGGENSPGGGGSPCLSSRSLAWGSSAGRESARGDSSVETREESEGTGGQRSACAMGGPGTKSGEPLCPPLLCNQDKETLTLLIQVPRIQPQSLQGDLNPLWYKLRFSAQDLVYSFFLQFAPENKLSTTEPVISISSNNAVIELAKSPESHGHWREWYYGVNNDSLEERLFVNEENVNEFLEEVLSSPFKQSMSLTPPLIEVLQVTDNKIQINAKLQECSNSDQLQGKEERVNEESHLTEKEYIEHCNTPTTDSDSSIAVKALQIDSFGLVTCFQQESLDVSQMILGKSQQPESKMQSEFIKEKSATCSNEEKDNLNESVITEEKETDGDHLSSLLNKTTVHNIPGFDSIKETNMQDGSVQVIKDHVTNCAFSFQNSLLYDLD
UniProt Q9NRX4: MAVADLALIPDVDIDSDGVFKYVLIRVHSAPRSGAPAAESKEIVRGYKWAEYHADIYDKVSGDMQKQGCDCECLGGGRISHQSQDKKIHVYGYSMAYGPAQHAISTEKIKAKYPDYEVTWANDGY
UniProt Q9NXE8: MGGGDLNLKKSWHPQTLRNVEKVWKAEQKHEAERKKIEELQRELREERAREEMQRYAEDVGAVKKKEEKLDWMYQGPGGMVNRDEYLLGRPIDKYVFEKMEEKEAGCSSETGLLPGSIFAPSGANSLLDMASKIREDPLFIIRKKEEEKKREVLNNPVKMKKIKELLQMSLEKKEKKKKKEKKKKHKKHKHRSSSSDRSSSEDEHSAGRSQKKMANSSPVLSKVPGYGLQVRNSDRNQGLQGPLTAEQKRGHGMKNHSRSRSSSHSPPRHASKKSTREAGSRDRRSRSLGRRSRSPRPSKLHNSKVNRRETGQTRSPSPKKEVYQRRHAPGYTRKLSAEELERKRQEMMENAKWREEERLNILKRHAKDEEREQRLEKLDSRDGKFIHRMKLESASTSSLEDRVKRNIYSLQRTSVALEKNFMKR
UniProt Q9P2I0: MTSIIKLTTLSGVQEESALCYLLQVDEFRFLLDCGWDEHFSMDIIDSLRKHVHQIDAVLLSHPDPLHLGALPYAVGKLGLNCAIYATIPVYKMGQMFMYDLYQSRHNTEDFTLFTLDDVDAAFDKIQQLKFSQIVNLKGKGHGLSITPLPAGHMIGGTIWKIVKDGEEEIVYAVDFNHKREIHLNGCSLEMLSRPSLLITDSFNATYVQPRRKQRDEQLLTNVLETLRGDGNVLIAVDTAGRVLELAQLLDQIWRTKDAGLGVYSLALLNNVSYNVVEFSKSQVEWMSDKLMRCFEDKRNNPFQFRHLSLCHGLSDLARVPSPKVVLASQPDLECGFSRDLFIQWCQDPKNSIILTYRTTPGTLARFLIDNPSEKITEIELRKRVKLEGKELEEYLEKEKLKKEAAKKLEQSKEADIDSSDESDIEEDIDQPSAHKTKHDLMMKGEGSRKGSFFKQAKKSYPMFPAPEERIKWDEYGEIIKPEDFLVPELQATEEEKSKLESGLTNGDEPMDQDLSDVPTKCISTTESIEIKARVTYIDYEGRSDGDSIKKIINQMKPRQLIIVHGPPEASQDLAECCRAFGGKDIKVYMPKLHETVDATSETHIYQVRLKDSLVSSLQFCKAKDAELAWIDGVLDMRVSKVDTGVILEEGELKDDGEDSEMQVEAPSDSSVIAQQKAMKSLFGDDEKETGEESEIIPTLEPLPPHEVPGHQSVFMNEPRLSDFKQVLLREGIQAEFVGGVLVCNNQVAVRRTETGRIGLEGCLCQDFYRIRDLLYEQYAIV
UniProt Q9P2E3: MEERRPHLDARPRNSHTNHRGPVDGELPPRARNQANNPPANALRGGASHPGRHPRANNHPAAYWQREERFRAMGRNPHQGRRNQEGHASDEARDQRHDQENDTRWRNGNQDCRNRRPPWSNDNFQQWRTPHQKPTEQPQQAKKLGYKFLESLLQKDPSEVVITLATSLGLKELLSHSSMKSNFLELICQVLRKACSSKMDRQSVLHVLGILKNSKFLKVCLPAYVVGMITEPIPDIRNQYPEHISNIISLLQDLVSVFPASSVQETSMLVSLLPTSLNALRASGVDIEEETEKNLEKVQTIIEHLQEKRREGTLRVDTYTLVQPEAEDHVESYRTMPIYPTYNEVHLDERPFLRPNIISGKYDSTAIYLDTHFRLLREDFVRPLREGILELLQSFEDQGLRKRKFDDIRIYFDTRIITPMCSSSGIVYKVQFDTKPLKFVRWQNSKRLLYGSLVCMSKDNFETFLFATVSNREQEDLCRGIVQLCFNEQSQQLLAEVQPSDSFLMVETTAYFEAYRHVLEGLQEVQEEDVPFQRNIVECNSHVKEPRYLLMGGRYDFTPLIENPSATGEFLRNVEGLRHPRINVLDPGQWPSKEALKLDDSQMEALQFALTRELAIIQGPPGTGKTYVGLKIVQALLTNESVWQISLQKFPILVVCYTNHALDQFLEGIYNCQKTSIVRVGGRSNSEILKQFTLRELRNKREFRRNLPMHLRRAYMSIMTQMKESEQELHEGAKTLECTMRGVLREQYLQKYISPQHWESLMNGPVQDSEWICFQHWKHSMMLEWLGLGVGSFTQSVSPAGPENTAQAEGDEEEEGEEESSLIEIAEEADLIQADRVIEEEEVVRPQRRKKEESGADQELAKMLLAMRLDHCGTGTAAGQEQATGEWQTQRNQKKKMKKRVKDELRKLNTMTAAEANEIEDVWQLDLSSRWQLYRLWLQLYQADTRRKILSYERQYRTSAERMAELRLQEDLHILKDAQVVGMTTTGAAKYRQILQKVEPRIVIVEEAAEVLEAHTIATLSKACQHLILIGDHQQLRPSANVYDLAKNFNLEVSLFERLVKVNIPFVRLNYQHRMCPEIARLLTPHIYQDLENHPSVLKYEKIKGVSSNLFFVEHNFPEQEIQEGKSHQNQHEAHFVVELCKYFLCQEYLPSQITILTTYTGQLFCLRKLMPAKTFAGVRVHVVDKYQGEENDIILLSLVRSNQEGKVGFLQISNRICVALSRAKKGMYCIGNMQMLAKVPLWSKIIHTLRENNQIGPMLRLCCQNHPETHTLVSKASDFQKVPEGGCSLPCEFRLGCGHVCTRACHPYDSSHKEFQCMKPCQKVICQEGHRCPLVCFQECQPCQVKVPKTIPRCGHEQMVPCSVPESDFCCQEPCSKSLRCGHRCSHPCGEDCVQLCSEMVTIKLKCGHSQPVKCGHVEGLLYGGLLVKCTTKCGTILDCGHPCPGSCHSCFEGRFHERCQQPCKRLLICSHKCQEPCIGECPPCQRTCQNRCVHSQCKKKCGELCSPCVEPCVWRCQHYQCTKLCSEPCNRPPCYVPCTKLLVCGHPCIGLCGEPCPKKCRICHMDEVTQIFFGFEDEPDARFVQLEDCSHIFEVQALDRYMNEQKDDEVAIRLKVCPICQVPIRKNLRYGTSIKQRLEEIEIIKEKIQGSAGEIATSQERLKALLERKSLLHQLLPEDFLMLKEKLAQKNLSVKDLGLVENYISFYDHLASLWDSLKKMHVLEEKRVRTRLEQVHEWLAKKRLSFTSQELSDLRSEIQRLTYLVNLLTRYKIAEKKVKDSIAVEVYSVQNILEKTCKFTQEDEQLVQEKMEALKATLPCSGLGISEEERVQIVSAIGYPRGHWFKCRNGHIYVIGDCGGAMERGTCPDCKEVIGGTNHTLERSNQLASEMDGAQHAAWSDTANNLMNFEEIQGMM
UniProt Q9P275: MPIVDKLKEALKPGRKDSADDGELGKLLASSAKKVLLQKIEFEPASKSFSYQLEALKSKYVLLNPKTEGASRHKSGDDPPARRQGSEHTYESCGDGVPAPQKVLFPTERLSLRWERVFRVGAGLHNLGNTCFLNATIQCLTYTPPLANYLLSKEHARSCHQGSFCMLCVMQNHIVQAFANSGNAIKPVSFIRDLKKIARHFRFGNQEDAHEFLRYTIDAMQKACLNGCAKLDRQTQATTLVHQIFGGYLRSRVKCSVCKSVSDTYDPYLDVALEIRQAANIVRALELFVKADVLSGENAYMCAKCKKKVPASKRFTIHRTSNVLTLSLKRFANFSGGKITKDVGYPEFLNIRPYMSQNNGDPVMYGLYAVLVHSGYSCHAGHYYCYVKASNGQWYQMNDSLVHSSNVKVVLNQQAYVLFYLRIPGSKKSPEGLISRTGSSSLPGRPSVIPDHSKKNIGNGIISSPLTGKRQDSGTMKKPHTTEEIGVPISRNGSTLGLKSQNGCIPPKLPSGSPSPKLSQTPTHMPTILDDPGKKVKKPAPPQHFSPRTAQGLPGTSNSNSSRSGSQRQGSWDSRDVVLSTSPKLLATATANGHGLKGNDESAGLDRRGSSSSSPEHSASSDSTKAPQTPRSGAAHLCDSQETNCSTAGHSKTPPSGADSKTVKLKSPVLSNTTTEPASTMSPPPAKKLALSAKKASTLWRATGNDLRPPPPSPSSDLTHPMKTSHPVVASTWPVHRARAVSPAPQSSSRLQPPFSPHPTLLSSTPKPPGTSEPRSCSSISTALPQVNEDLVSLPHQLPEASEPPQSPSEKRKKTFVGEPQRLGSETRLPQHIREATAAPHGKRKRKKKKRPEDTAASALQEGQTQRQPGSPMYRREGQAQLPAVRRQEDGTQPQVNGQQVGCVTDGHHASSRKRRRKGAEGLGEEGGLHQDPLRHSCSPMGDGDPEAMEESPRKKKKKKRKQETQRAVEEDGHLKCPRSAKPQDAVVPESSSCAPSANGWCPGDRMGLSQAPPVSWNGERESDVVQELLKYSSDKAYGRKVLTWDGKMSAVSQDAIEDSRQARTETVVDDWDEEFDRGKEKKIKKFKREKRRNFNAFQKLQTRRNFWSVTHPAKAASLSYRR
UniProt Q9P0K8: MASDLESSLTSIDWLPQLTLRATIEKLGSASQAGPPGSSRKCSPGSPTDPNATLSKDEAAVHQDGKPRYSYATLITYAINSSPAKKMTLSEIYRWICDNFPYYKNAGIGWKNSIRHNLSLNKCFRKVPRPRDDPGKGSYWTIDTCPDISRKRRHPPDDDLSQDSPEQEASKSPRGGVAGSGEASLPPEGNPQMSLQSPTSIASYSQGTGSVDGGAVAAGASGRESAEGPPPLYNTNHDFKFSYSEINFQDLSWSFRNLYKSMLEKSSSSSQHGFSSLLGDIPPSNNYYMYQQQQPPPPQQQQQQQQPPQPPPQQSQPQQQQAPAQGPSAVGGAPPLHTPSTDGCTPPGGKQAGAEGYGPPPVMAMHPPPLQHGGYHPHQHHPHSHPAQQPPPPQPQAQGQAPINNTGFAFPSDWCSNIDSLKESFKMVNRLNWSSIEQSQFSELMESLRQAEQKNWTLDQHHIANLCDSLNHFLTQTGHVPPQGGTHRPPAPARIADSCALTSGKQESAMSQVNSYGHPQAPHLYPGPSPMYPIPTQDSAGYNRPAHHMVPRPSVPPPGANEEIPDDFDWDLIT

Compound: Nc1ncnc2c1ncn2[C@@H]1O[C@H](COP(=O)(O)OP(=O)(O)NP(=O)(O)O)[C@@H](O)[C@H]1O [adenylyl imidodiphosphate]
Assay: NP40-soluble protein abundance relative to vehicle (solubility fold change) (ratio); higher = more soluble protein in presence of AMP-PNP
Summary of the method: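 Crude Jurkat lysate, prepared by Dounce homogenisation, was exposed to eight concentrations from 0.1 to 10 mM for 10 min at room temperature and then 3 min at 37 °C. Solubilisation used 0.8% NP40 with benzonase for 60 min at 4 °C, followed by ultracentrifugation and TMT labelling of the supernatant for LC-MS/MS. After vsn normalisation of intensities, each value is the fold change against the detergent-processed vehicle within each replicate, across three independent experiments.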

Target	NP40-soluble protein abundance (concentration: 1mM)	NP40-soluble protein abundance (concentration: 2mM)	NP40-soluble protein abundance (concentration: 4mM)	NP40-soluble protein abundance (concentration: 6mM)	NP40-soluble protein abundance (concentration: 8mM)	NP40-soluble protein abundance (concentration: 10mM)
UniProt Q9NRG7-2|Q9NRG7	0.915 ± 0.047	0.877 ± 0.053	0.917 ± 0.044	0.911 ± 0.063	0.903 ± 0.072	0.881 ± 0.043
UniProt Q9NX07 and related entries	0.971 ± 0.035	0.961 ± 0.042	0.984 ± 0.066	0.957 ± 0.035	0.937 ± 0.032	0.95 ± 0.065
UniProt Q9NYP7 and related entries	0.961 ± 0.05	0.893 ± 0.041	0.952 ± 0.043	0.947 ± 0.059	0.969 ± 0.074	0.939 ± 0.018
ZNF219 (UniProt Q9P2Y4)	1 ± 0.03	1.02 ± 0.037	1.02 ± 0.033	1.01 ± 0.037	1 ± 0.0062	1 ± 0.019
UniProt Q9NZB2 and related entries	0.999 ± 0.08	1.01 ± 0.043	1 ± 0.078	1 ± 0.061	1.02 ± 0.06	1.05 ± 0.066
HIF1AN (UniProt Q9NWT6)	1.02 ± 0.018	0.981 ± 0.043	1 ± 0.027	0.973 ± 0.038	1 ± 0.011	0.964 ± 0.027
UniProt Q9NXH9 and related entries	0.992 ± 0.012	0.995 ± 0.02	1.01 ± 0.024	0.959 ± 0.03	0.9583 ± 0.0056	0.958 ± 0.027
UniProt Q9P0U4 and related entries	0.965 ± 0.028	0.997 ± 0.025	1.005 ± 0.0053	1.01 ± 0.039	1.021 ± 0.0081	1.02 ± 0.025
UniProt Q9P2K3-3|Q9P2K3-4	0.993 ± 0.05	1.03 ± 0.045	0.985 ± 0.047	1 ± 0.066	0.982 ± 0.034	1.01 ± 0.062
FAM120C (UniProt Q9NX05)	1.01 ± 0.047	1.02 ± 0.046	1.01 ± 0.061	1 ± 0.076	1.02 ± 0.08	1.03 ± 0.06
UniProt Q9NUV9 and related entries	1.08 ± 0.023	1.06 ± 0.019	1.02 ± 0.039	1.02 ± 0.068	1.02 ± 0.06	1.03 ± 0.043
UniProt Q9NVH1 and related entries	1.02 ± 0.034	0.947 ± 0.09	0.974 ± 0.064	0.991 ± 0.035	0.987 ± 0.056	0.995 ± 0.081
THYN1 (UniProt Q9P016)	1.05 ± 0.036	1.13 ± 0.065	1.1 ± 0.069	1.16 ± 0.035	1.18 ± 0.013	1.17 ± 0.055
UniProt Q9NV96 and related entries	0.973 ± 0.067	1.03 ± 0.089	0.961 ± 0.048	0.995 ± 0.026	0.961 ± 0.056	0.969 ± 0.043
FANCI (UniProt Q9NVI1)	0.971 ± 0.018	0.973 ± 0.028	0.975 ± 0.03	1.04 ± 0.056	1.01 ± 0.055	1.04 ± 0.04
UniProt Q9NYU2 and related entries	0.9826 ± 0.0098	0.9 ± 0.12	0.955 ± 0.034	0.917 ± 0.031	0.936 ± 0.04	0.895 ± 0.036
UniProt Q9UBF6 and related entries	1.014 ± 0.0081	1.013 ± 0.0055	1.01 ± 0.011	1.011 ± 0.0021	1 ± 0.031	1 ± 0.028
UniProt Q9NVM4 and related entries	1 ± 0.058	0.9878 ± 0.0085	1.01 ± 0.012	0.9707 ± 0.0083	0.991 ± 0.022	0.946 ± 0.022
KLC4 (UniProt Q9NSK0)	1.04 ± 0.027	1.07 ± 0.11	1.04 ± 0.0083	1.02 ± 0.027	0.9997 ± 0.0053	1.05 ± 0.035
OCIAD1 (UniProt Q9NX40)	1.01 ± 0.026	1.06 ± 0.019	0.993 ± 0.053	0.975 ± 0.027	0.975 ± 0.046	0.973 ± 0.061
UniProt Q9NVR5	0.996 ± 0.025	1.02 ± 0.04	0.965 ± 0.022	0.981 ± 0.028	0.968 ± 0.036	0.96 ± 0.059
PHPT1 (UniProt Q9NRX4)	0.985 ± 0.018	0.991 ± 0.03	0.949 ± 0.039	0.988 ± 0.019	0.964 ± 0.035	0.951 ± 0.035
UniProt Q9P2A4 and related entries	1.02 ± 0.049	1.044 ± 0.01	1.06 ± 0.034	1.02 ± 0.022	0.996 ± 0.031	1.02 ± 0.025
TOMM22 (UniProt Q9NS69)	1.02 ± 0.046	1.05 ± 0.071	1.01 ± 0.024	0.983 ± 0.023	0.986 ± 0.014	0.982 ± 0.037
UniProt Q9P260 and related entries	1 ± 0.017	0.98 ± 0.025	0.989 ± 0.02	0.986 ± 0.011	0.9709 ± 0.0089	0.951 ± 0.025
MRPL40 (UniProt Q9NQ50)	0.977 ± 0.082	1.05 ± 0.057	0.98 ± 0.064	0.943 ± 0.11	0.957 ± 0.094	0.957 ± 0.083

Target	NP40-soluble protein abundance (concentration: 1mM)	NP40-soluble protein abundance (concentration: 2mM)	NP40-soluble protein abundance (concentration: 4mM)	NP40-soluble protein abundance (concentration: 6mM)	NP40-soluble protein abundance (concentration: 8mM)	NP40-soluble protein abundance (concentration: 10mM)
MRPL39 (UniProt Q9NYK5)	0.996 ± 0.091	0.952 ± 0.15	0.966 ± 0.17	0.945 ± 0.16	0.959 ± 0.1	0.95 ± 0.19
UniProt Q9UBL3 and related entries	0.995 ± 0.018	0.985 ± 0.016	0.997 ± 0.025	1 ± 0.023	0.99 ± 0.017	1.03 ± 0.033
HDAC6 (UniProt Q9UBN7)	1.02 ± 0.022	1.01 ± 0.019	1 ± 0.045	0.9738 ± 0.0083	0.978 ± 0.017	0.972 ± 0.044
UniProt Q9NXA8 and related entries	1 ± 0.032	0.997 ± 0.028	1.02 ± 0.023	1.01 ± 0.011	0.984 ± 0.013	1 ± 0.034
UniProt Q9NS73 and related entries	1.02 ± 0.024	1.03 ± 0.011	1.03 ± 0.047	1.02 ± 0.042	1.02 ± 0.02	1.007 ± 0.0054
UniProt Q9NXE8	0.978 ± 0.043	0.9814 ± 0.0032	0.956 ± 0.043	0.995 ± 0.051	0.999 ± 0.059	0.992 ± 0.022
UniProt Q9NYR9 and related entries	1.06 ± 0.032	1.059 ± 0.009	1.02 ± 0.05	1.02 ± 0.046	1.01 ± 0.043	1.03 ± 0.04
CPSF2 (UniProt Q9P2I0)	1.01 ± 0.016	1 ± 0.053	1.03 ± 0.027	1.03 ± 0.061	1.05 ± 0.035	1.07 ± 0.055
TMOD3 (UniProt Q9NYL9)	1.02 ± 0.045	1.05 ± 0.057	1.01 ± 0.061	0.977 ± 0.046	0.985 ± 0.029	0.957 ± 0.054
UniProt Q9NYM9 and related entries	1.01 ± 0.022	1.08 ± 0.071	0.997 ± 0.039	0.996 ± 0.037	0.965 ± 0.017	0.968 ± 0.017
UniProt Q9NT62 and related entries	1.05 ± 0.041	1.06 ± 0.073	1.05 ± 0.068	0.98 ± 0.042	1.01 ± 0.042	0.997 ± 0.074
MPP6 (UniProt Q9NZW5)	1.01 ± 0.025	0.972 ± 0.059	1 ± 0.027	0.968 ± 0.021	0.965 ± 0.019	0.955 ± 0.026
UniProt Q9NYF8 and related entries	1.1 ± 0.018	1.19 ± 0.08	1.19 ± 0.033	1.29 ± 0.1	1.31 ± 0.11	1.43 ± 0.12
HECA (UniProt Q9UBI9)	0.969 ± 0.029	1 ± 0.017	1.02 ± 0.049	1.034 ± 0.0078	1.06 ± 0.046	1.04 ± 0.024
ZNFX1 (UniProt Q9P2E3)	1.01 ± 0.022	0.985 ± 0.041	0.976 ± 0.022	0.9802 ± 0.0043	0.984 ± 0.011	0.9717 ± 0.0071
FAM114A2 (UniProt Q9NRY5)	1.06 ± 0.023	1.07 ± 0.058	0.999 ± 0.023	0.974 ± 0.041	0.946 ± 0.021	0.936 ± 0.018
UniProt Q9NVH2 and related entries	0.997 ± 0.028	0.956 ± 0.059	1.03 ± 0.023	1.05 ± 0.036	1.06 ± 0.062	1.07 ± 0.063
UniProt Q9P275 and related entries	1.05 ± 0.011	1.07 ± 0.035	1.14 ± 0.08	1.18 ± 0.11	1.22 ± 0.088	1.29 ± 0.096
UniProt Q9NPQ8 and related entries	1.07 ± 0.021	1.05 ± 0.028	1.06 ± 0.051	1.02 ± 0.046	1.02 ± 0.055	1.03 ± 0.046
UniProt Q9NXN4 and related entries	0.985 ± 0.034	0.963 ± 0.029	1.01 ± 0.045	0.999 ± 0.073	1.01 ± 0.039	0.9755 ± 0.0088
UniProt Q9P0K8 and related entries	0.966 ± 0.05	1 ± 0.038	0.956 ± 0.031	0.973 ± 0.044	0.962 ± 0.039	0.959 ± 0.033
FAM49B (UniProt Q9NUQ9)	1 ± 0.026	1.03 ± 0.055	0.985 ± 0.04	1 ± 0.03	0.967 ± 0.035	0.981 ± 0.053
ZBTB40 (UniProt Q9NUA8)	0.995 ± 0.032	0.951 ± 0.017	0.941 ± 0.015	0.914 ± 0.036	0.904 ± 0.018	0.918 ± 0.026
UniProt Q9NZ01	0.98 ± 0.037	0.878 ± 0.089	0.96 ± 0.037	0.964 ± 0.032	1.05 ± 0.032	0.944 ± 0.036
IMPAD1 (UniProt Q9NX62)	1 ± 0.024	1.03 ± 0.08	0.978 ± 0.044	0.989 ± 0.013	0.98 ± 0.036	0.992 ± 0.078

In a second layout: entries from further up.
UniProt Q9NV96 and related entries
  NP40-soluble protein abundance (concentration: 1mM): 0.973 ± 0.067
  NP40-soluble protein abundance (concentration: 2mM): 1.03 ± 0.089
  NP40-soluble protein abundance (concentration: 4mM): 0.961 ± 0.048
  NP40-soluble protein abundance (concentration: 6mM): 0.995 ± 0.026
  NP40-soluble protein abundance (concentration: 8mM): 0.961 ± 0.056
  NP40-soluble protein abundance (concentration: 10mM): 0.969 ± 0.043
FANCI (UniProt Q9NVI1)
  NP40-soluble protein abundance (concentration: 1mM): 0.971 ± 0.018
  NP40-soluble protein abundance (concentration: 2mM): 0.973 ± 0.028
  NP40-soluble protein abundance (concentration: 4mM): 0.975 ± 0.03
  NP40-soluble protein abundance (concentration: 6mM): 1.04 ± 0.056
  NP40-soluble protein abundance (concentration: 8mM): 1.01 ± 0.055
  NP40-soluble protein abundance (concentration: 10mM): 1.04 ± 0.04
